Test results: article PMC8455547
Read-outs that look alike come from different tables or passages of the source. No constants are given. Whether binding was seen depends on the method and setting. Binding seen in cells or lysates may run through a third protein. Some results given as binding are weak or reduced against the parent protein; the word gives no strength. Where a sequence is shown, tags or fusion partners need not be part of it.

Amino acid sequences for entries named in this document (tags omitted).
UniProt Q9UBN7: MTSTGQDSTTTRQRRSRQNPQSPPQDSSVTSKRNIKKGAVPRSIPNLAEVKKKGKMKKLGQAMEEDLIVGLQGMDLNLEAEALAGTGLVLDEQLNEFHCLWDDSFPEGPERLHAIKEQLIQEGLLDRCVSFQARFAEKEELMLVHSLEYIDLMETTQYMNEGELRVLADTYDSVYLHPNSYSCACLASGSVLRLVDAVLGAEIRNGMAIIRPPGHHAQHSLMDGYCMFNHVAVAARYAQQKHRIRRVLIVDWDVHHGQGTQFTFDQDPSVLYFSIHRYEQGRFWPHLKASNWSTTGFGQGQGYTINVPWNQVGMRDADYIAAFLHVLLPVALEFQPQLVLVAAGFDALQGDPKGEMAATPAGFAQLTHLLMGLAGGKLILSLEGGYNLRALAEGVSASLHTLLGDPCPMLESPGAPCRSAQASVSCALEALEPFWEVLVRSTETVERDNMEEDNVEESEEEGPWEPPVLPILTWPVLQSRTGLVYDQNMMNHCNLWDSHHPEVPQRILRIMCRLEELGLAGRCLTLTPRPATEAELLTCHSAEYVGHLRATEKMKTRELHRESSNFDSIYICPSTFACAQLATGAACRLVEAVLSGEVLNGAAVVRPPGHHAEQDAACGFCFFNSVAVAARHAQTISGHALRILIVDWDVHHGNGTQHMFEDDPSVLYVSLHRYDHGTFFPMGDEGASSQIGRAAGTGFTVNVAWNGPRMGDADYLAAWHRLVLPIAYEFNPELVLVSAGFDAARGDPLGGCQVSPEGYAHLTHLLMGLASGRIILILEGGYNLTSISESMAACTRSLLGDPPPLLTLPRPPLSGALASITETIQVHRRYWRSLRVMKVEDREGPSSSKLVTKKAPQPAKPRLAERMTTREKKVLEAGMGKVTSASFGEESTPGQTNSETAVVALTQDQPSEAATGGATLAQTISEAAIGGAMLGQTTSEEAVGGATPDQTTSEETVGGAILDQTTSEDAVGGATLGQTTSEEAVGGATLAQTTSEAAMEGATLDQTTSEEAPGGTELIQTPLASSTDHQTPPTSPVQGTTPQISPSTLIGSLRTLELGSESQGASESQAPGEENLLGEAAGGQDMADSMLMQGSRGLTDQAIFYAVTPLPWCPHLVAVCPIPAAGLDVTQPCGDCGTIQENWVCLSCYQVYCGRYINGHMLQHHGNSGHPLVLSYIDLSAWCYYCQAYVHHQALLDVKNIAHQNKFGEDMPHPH
UniProt Q5SQI0: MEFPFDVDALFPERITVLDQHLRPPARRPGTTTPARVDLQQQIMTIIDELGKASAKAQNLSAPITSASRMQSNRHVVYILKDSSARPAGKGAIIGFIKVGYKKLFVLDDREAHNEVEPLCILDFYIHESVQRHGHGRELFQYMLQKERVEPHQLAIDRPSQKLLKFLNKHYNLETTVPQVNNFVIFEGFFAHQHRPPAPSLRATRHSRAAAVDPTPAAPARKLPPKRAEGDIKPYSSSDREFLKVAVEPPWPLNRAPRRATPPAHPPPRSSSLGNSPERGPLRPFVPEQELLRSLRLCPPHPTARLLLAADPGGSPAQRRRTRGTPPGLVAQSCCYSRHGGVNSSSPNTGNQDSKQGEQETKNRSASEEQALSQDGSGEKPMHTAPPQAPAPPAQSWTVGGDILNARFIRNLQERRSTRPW

T1: GST–Id2 (expressed in mammalian cells) (UniProt Q02363)
T1 sequence: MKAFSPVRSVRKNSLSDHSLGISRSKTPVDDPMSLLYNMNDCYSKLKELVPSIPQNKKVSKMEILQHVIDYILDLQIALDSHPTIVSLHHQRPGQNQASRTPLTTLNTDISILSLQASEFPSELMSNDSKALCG

B1: Sirt2 (construct of Fig. 4A) (enzyme, UniProt Q8IXJ6 1-389)
chain: MAEPDPSHPLETQAGKVQEAQDSDSDSEGGAAGGEADMDFLRNLFSQTLSLGSQKERLLDELTLEGVARYMQSERCRRVICLVGAGISTSAGIPDFRSPSTGLYDNLEKYHLPYPEAIFEISYFKKHPEPFFALAKELYPGQFKPTICHYFMRLLKDKGLLLRCYTQNIDTLERIAGLEQEDLVEAHGTFYTSHCVSASCRHEYPLSWMKEKIFSEVTPKCEDCQSLVKPDIVFFGESLPARFFSCMQSDFLKVDLLLVMGTSLQVQPFASLISKAPLSTPRLLINKEKAGQSDPFLGMIMGLGGGMDFDSKKAYRDVAWLGECDQGCLALAELLGWKKELEDLVRREHASIDAQSGAGVPNPSTSASPKKSPPPAKDEARTTEREKPQ
B2: GFP–Sirt2 full length (enzyme, UniProt Q8IXJ6 1-389)
chain: B1 chain

Experiments:
[1] = molecular target: T1, GST–Id2 (expressed in mammalian cells); assay: pull-down; lysates of co-transfected cells (HEK293T where named) mixed with glutathione–sepharose beads, 3 h at 4 °C; 50 mM Tris-Cl pH 7.4, 150 mM NaCl, 1 mM EDTA, 0.5% Triton X-100; immunoblotting; in some panels with HA–Akt WT or CA Akt, or Akt inhibitor VIII (1 μM, 6 h)
[2] = molecular target: T1, GST–Id2 (expressed in mammalian cells); assay: as above; remark: listed apart in the source

Molecule	binding [1]	binding [2]
HDAC6 (from UniProt Q9UBN7 1-1215) (enzyme)	no binding	–
αTAT (from UniProt Q5SQI0 1-421) (enzyme)	binds weakly	–
B1	–	binds
B2	–	binds
